Laboratory results reported in paper PMC6458711.
No constants are given. Whether binding was seen depends on the method and setting. In cells and extracts the contact can be indirect. These calls come from enrichment with a bait or labelling near it, and not all partners need be listed. Tags and fused reporters may be left off the sequences shown.

B1: nuclear factor kappa B subunit 2 (NFKB2) (protein, UniProt Q00653 1-900)
chain: MESCYNPGLDGIIEYDDFKLNSSIVEPKEPAPETADGPYLVIVEQPKQRGFRFRYGCEGPSHGGLPGASSEKGRKTYPTVKICNYEGPAKIEVDLVTHSDPPRAHAHSLVGKQCSELGICAVSVGPKDMTAQFNNLGVLHVTKKNMMGTMIQKLQRQRLRSRPQGLTEAEQRELEQEAKELKKVMDLSIVRLRFSAFLRASDGSFSLPLKPVISQPIHDSKSPGASNLKISRMDKTAGSVRGGDEVYLLCDKVQKDDIEVRFYEDDENGWQAFGDFSPTDVHKQYAIVFRTPPYHKMKIERPVTVFLQLKRKRGGDVSDSKQFTYYPLVEDKEEVQRKRRKALPTFSQPFGGGSHMGGGSGGAAGGYGGAGGGGSLGFFPSSLAYSPYQSGAGPMGCYPGGGGGAQMAATVPSRDSGEEAAEPSAPSRTPQCEPQAPEMLQRAREYNARLFGLAQRSARALLDYGVTADARALLAGQRHLLTAQDENGDTPLHLAIIHGQTSVIEQIVYVIHHAQDLGVVNLTNHLHQTPLHLAVITGQTSVVSFLLRVGADPALLDRHGDSAMHLALRAGAGAPELLRALLQSGAPAVPQLLHMPDFEGLYPVHLAVRARSPECLDLLVDSGAEVEATERQGGRTALHLATEMEELGLVTHLVTKLRANVNARTFAGNTPLHLAAGLGYPTLTRLLLKAGADIHAENEEPLCPLPSPPTSDSDSDSEGPEKDTRSSFRGHTPLDLTCSTKVKTLLLNAAQNTMEPPLTPPSPAGPGLSLGDTALQNLEQLLDGPEAQGSWAELAERLGLRSLVDTYRQTTSPSGSLLRSYELAGGDLAGLLEALSDMGLEEGVRLLRGPETRDKLPSTAEVKEDSAYGSQSVEQEAEKLGPPPEPPGGLCHGHPQPQVH
B2: nucleoporin 54 (NUP54) (protein, UniProt Q7Z3B4 1-507)
chain: MAFNFGAPSGTSGTAAATAAPAGGFGGFGTTSTTAGSAFSFSAPTNTGTTGLFGGTQNKGFGFGTGFGTTTGTSTGLGTGLGTGLGFGGFNTQQQQQTTLGGLFSQPTQAPTQSNQLINTASALSAPTLLGDERDAILAKWNQLQAFWGTGKGYFNNNIPPVEFTQENPFCRFKAVGYSCMPSNKDEDGLVVLVFNKKETEIRSQQQQLVESLHKVLGGNQTLTVNVEGTKTLPDDQTEVVIYVVERSPNGTSRRVPATTLYAHFEQANIKTQLQQLGVTLSMTRTELSPAQIKQLLQNPPAGVDPIIWEQAKVDNPDSEKLIPVPMVGFKELLRRLKVQDQMTKQHQTRLDIISEDISELQKNQTTSVAKIAQYKRKLMDLSHRTLQVLIKQEIQRKSGYAIQADEEQLRVQLDTIQGELNAPTQFKGRLNELMSQIRMQNHFGAVRSEERYYIDADLLREIKQHLKQQQEGLSHLISIIKDDLEDIKLVEHGLNETIHIRGGVFS
B3: nucleoporin 160 (NUP160) (protein, UniProt Q12769 1-1436)
chain: MLHLSAAPPAPPPEVTATARPCLCSVGRRGDGGKMAAAGALERSFVELSGAERERPRHFREFTVCSIGTANAVAGAVKYSESAGGFYYVESGKLFSVTRNRFIHWKTSGDTLELMEESLDINLLNNAIRLKFQNCSVLPGGVYVSETQNRVIILMLTNQTVHRLLLPHPSRMYRSELVVDSQMQSIFTDIGKVDFTDPCNYQLIPAVPGISPNSTASTAWLSSDGEALFALPCASGGIFVLKLPPYDIPGMVSVVELKQSSVMQRLLTGWMPTAIRGDQSPSDRPLSLAVHCVEHDAFIFALCQDHKLRMWSYKEQMCLMVADMLEYVPVKKDLRLTAGTGHKLRLAYSPTMGLYLGIYMHAPKRGQFCIFQLVSTESNRYSLDHISSLFTSQETLIDFALTSTDIWALWHDAENQTVVKYINFEHNVAGQWNPVFMQPLPEEEIVIRDDQDPREMYLQSLFTPGQFTNEALCKALQIFCRGTERNLDLSWSELKKEVTLAVENELQGSVTEYEFSQEEFRNLQQEFWCKFYACCLQYQEALSHPLALHLNPHTNMVCLLKKGYLSFLIPSSLVDHLYLLPYENLLTEDETTISDDVDIARDVICLIKCLRLIEESVTVDMSVIMEMSCYNLQSPEKAAEQILEDMITIDVENVMEDICSKLQEIRNPIHAIGLLIREMDYETEVEMEKGFNPAQPLNIRMNLTQLYGSNTAGYIVCRGVHKIASTRFLICRDLLILQQLLMRLGDAVIWGTGQLFQAQQDLLHRTAPLLLSYYLIKWGSECLATDVPLDTLESNLQHLSVLELTDSGALMANRFVSSPQTIVELFFQEVARKHIISHLFSQPKAPLSQTGLNWPEMITAITSYLLQLLWPSNPGCLFLECLMGNCQYVQLQDYIQLLHPWCQVNVGSCRFMLGRCYLVTGEGQKALECFCQAASEVGKEEFLDRLIRSEDGEIVSTPRLQYYDKVLRLLDVIGLPELVIQLATSAITEAGDDWKSQATLRTCIFKHHLDLGHNSQAYEALTQIPDSSRQLDCLRQLVVVLCERSQLQDLVEFPYVNLHNEVVGIIESRARAVDLMTHNYYELLYAFHIYRHNYRKAGTVMFEYGMRLGREVRTLRGLEKQGNCYLAALNCLRLIRPEYAWIVQPVSGAVYDRPGASPKRNHDGECTAAPTNRQIEILELEDLEKECSLARIRLTLAQHDPSAVAVAGSSSAEEMVTLLVQAGLFDTAISLCQTFKLPLTPVFEGLAFKCIKLQFGGEAAQAEAWAWLAANQLSSVITTKESSATDEAWRLLSTYLERYKVQNNLYHHCVINKLLSHGVPLPNWLINSYKKVDAAELLRLYLNYDLLEEAVDLVSEYVDAVLGKGHQYFGIEFPLSATAPMVWLPYSSIDQLLQALGENSANSHNIALSQKILDKLEDYQQKVDKATRDLLYRRTL

target: T1, Transketolase (TKT) wild type, Flag-tagged (human) (UniProt P29401); experiment: affinity purification with mass spectrometry; cross-linking Co-IP/MS: Huh7 stable cells fixed with 0.5% formaldehyde for 8 min at RT; nuclear pellets lysed in 50 mM HEPES/KOH pH 7.5, 500 mM NaCl, 1% Triton X-100, 1 mM EDTA, 0.1% SDS; TKT antibody and Protein G Dynabeads; LC-MS/MS; a protein counted as TKT-WT unique if more than 5-fold over vector control and K6R
T1 sequence: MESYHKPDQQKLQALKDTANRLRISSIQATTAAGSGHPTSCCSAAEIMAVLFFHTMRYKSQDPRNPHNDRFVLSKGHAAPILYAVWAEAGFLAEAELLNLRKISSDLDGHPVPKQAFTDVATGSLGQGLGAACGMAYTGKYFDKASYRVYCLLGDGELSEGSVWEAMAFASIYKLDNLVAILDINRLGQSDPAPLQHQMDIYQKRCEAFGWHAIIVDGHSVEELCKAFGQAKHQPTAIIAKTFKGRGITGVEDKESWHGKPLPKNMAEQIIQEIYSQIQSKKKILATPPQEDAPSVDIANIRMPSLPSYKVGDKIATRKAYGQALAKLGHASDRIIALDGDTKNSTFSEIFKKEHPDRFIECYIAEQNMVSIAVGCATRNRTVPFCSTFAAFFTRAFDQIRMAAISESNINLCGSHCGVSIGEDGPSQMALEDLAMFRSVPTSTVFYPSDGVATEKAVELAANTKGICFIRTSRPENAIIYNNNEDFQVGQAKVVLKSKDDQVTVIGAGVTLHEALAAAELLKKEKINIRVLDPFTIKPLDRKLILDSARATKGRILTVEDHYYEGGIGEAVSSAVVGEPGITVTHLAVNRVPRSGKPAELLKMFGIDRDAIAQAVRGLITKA

Q: Which binding does the source give for B1 here?
A: binds

Q: With B2 as the binder, how does the binding read?
A: binds

Q: How did the binding turn out when B3 was run?
A: binds
